According to US10507233B2, “Universal N-glycan binding reagent” (New England Biolabs, Inc., priority 2014, dated 2019):
Residue numbers refer to the chain shown, from its start. Some entries share one result that the patent states for a list of compounds.

B1: PPG: human Fbs SBD variant, positions 154-156 P, P, G (protein)
chain: FYFLSKRRRNLLRNPCGEEDLEGWCDVEHGGDGWRVEELPGPPGVEFTHDESVKKYFASSFEWCRKAQVIDLQAEGYWEELLDTTQPAIVVKDWYSGRSDAGCLYELTVKLLSEHENVLAEFSSGQVAVPQDSDGGGWMEISHTFTDYGPGVRFVRFEHGGQDSVYWKGWFGARVTNSSVWVEP
modifications: left off: large carriers
notes: human Fbs SBD variant, positions 154-156 P, P, G
B2: PPS: human Fbs SBD variant, positions 154-156 P, P, S (protein)
chain: B1 chain with G44S
modifications: left off: large carriers
notes: human Fbs SBD variant, positions 154-156 P, P, S

Tested on: Fetuin
Assay: Fetuin pull-down assay (Affigel-Fetuin beads, SDS-PAGE, ImageJ)
Type: binding
Details: low salt buffer, cell lysates
Excerpt: Fetuin, which contains sialylated complex N-linked glycans, served as the complex N-linked glycomolecule in this example. Fetuin was conjugated to Affigel 15 resin (Bio-Rad, Hercules, Calif.), and then denatured by 6 M Guanidine HCL. After denaturation, the fetuin beads were washed with 50 bead volumes of low salt buffer to remove Guanidine HCL. This immobilized denatured Fetuin was used to screen Fbs mutants for improved affinity to complex N-linked glycomolecules in low salt conditions in a fetuin pull-down assay. In this assay, cell lysates containing the same amount of wild type or mutant Fbs protein were incubated with the same amount of fetuin beads at 4° C. for 1 hour. After incubation, the fetuin beads were washed three times with low salt buffer. The bound Fbs proteins were eluted by 1× gel loading buffer, and analyzed by SDS-PAGE. In the fetuin pull-down assay, the amount of Fbs mutant protein shown on the SDS-PAGE gel indicates the relative affinity of each Fbs mutant for binding to a complex N-linked glycomolecule. Fbs amino acid residue serine 155 was mutated to alanine to assess the effect on the interaction with complex N-linked glycomolecules. Mutation of Ser155 to alanine was expected to reduce the affinity of the interaction between Fbs and fetuin according to the published report of Tanaka et al. (Tanaka, et al. PNAS). […]

| Molecule | fetuin pull-down relative to wild type Fbs |
| --- | --- |
| B1 | up to 2.8 fold |
| B2 | up to 2.8 fold |
